In the supplement of paper PMC12823440, “Inhibitors supercharge kinase turnover through native proteolytic circuits” (Nature, 2025):
The list shows a part of the results. The calls rarely recur for the same compound in another form.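 Kinases were expressed as nanoluciferase fusions in K562 cells and luminescence was read every 4 h between 2 and 18 h as percent of control, DMSO set to 100% and a positive control to 0%. A time point counts as decreased when the signal drops significantly (2 sigma). The hit call is the authors' own, does not follow from the count of time points alone, and its rule is not shown.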

By UniProt entry, the sequences of proteins in these tests, tags left out. Where a name states a change or a piece, a line headed by the entry shows the natural chain unless it says otherwise.
UniProt Q15208: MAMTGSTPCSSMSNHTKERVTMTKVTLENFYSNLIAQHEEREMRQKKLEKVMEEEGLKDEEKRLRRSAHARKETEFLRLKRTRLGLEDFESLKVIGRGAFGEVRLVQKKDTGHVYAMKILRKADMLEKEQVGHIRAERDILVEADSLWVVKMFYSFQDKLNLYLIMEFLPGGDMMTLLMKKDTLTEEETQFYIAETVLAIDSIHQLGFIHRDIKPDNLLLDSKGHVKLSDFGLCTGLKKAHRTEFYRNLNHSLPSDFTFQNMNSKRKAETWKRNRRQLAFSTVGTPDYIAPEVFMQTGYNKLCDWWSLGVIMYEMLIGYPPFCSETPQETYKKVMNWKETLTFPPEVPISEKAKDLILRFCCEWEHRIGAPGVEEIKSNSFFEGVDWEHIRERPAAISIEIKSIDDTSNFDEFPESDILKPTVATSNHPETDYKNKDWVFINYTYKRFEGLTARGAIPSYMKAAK
UniProt P42680: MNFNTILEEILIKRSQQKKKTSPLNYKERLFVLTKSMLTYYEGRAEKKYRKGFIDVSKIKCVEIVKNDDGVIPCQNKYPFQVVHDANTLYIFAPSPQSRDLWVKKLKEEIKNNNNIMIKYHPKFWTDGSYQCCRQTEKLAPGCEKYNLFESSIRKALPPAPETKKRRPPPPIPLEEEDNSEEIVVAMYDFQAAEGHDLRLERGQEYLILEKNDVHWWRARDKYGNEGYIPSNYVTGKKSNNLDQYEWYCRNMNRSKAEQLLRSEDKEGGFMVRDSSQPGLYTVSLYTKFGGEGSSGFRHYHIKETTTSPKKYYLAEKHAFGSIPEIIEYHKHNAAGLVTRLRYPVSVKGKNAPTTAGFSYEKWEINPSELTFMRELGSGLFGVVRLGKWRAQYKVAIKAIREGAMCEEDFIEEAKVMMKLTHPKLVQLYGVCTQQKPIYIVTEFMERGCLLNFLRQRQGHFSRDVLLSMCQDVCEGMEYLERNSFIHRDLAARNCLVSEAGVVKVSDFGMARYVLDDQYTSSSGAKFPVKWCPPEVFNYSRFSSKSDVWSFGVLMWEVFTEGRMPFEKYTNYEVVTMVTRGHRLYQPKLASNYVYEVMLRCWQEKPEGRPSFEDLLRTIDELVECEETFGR
UniProt P29597: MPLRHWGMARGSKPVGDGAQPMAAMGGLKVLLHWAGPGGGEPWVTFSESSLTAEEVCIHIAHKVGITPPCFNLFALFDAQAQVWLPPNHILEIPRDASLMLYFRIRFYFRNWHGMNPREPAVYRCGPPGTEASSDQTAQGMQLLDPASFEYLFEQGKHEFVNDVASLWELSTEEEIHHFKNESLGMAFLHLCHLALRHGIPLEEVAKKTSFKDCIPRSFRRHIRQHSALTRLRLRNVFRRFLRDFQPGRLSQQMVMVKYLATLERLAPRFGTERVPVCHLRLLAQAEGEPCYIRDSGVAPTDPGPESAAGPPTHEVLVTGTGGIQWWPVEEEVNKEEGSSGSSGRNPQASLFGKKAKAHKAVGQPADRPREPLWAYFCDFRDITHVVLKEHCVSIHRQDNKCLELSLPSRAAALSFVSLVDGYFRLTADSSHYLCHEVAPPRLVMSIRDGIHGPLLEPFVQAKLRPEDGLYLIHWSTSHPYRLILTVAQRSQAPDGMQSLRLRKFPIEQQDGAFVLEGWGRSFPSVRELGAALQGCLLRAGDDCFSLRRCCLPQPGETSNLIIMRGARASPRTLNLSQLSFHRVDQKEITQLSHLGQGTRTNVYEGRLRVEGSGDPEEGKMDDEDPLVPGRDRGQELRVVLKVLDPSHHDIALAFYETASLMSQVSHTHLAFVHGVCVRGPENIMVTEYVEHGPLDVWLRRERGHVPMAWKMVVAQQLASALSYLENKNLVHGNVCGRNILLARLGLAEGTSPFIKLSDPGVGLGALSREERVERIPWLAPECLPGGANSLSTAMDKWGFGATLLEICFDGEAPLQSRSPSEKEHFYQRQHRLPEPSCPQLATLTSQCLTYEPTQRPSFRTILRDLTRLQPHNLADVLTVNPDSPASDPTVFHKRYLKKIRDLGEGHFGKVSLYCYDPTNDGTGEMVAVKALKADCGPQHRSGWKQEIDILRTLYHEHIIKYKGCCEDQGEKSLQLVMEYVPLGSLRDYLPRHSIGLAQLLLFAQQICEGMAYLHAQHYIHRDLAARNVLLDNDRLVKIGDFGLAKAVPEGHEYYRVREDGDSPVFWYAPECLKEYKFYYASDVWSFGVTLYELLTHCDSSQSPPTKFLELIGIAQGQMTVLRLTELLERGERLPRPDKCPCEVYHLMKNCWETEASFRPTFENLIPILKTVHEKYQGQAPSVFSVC
UniProt Q6PHR2: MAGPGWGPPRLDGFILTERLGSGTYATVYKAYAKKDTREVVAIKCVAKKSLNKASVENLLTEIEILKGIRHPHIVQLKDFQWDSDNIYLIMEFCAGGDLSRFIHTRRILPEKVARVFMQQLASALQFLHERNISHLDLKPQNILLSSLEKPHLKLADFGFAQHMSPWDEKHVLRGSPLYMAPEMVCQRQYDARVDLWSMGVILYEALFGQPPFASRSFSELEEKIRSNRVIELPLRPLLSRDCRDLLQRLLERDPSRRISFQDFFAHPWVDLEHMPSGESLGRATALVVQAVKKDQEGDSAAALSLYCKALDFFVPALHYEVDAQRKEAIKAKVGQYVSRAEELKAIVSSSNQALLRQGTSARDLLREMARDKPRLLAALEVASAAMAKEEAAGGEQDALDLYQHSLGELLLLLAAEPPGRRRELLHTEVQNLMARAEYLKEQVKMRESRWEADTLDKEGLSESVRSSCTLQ
UniProt P07947, whole entry, looked up: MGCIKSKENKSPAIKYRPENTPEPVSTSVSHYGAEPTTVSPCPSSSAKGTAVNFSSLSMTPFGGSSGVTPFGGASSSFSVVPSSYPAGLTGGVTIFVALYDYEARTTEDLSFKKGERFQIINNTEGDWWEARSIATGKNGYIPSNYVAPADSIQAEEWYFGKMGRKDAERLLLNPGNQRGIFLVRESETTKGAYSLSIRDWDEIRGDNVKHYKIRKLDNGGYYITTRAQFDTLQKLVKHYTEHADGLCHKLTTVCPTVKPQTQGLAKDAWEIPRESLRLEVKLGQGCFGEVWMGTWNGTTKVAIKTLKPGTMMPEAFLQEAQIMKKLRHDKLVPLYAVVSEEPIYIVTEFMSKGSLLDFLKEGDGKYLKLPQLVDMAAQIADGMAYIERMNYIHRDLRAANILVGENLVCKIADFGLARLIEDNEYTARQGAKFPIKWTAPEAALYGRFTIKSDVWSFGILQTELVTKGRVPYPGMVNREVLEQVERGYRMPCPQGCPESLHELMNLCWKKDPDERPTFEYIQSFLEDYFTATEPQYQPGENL
UniProt P43403: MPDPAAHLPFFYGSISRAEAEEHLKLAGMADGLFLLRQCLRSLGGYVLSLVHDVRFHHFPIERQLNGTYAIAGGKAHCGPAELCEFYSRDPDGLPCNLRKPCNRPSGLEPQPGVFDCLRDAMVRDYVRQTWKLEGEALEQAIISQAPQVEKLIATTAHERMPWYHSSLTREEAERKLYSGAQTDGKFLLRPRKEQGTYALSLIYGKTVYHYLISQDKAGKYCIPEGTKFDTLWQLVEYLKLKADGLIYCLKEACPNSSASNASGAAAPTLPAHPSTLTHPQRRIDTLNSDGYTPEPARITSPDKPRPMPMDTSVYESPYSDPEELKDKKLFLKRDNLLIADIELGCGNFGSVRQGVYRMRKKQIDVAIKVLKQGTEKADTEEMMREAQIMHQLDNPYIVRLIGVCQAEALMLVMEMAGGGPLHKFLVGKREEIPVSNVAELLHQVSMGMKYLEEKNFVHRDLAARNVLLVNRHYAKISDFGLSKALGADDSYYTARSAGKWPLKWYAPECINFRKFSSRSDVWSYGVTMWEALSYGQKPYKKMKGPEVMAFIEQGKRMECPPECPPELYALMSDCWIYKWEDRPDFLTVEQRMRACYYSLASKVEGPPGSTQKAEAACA
UniProt P00519, whole entry: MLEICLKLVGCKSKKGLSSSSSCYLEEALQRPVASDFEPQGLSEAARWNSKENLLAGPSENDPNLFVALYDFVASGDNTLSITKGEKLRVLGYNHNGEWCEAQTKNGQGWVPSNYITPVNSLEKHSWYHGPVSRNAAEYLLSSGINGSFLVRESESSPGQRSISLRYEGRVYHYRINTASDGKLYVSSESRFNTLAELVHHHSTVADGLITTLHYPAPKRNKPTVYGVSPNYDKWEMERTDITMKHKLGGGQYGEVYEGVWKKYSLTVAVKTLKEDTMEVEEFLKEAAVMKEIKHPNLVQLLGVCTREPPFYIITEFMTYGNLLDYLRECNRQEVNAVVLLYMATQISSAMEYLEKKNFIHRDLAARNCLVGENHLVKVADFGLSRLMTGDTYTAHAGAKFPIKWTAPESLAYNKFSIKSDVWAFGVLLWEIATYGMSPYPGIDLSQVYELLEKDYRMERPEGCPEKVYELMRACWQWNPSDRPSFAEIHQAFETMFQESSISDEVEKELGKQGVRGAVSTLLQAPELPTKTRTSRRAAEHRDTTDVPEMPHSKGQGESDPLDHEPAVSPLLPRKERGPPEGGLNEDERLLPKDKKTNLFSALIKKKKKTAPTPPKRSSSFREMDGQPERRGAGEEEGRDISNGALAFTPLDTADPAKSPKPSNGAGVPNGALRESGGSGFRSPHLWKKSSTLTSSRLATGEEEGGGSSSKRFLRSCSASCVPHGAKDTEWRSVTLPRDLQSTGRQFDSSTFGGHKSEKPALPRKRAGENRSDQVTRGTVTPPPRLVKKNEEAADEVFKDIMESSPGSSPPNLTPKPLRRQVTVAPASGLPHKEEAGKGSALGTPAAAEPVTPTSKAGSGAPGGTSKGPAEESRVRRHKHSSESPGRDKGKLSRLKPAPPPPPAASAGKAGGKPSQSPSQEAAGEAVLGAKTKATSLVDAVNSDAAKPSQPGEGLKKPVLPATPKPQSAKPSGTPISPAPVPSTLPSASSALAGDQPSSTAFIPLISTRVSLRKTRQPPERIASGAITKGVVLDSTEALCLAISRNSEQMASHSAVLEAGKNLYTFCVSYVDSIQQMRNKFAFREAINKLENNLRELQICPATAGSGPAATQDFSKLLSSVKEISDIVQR
UniProt P31749: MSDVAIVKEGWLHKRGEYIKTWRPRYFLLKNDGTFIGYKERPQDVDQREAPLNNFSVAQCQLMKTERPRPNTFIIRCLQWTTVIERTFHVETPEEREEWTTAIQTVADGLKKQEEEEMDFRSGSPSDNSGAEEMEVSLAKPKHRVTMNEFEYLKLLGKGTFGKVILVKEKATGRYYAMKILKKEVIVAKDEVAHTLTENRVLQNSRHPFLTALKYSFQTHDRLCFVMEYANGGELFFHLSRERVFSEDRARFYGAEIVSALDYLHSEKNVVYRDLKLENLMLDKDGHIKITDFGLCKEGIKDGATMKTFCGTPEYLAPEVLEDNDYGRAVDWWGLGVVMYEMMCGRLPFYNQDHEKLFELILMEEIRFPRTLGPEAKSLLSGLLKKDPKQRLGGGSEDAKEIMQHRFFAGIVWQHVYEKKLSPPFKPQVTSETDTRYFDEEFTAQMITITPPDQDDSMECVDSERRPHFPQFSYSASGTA

Key:
Conditions in all cases: K562; 2-18 h
STK38 = STK38 (UniProt Q15208); test: kinase-Nluc reporter destabilization hit call (1 = scored as downregulated) (binary); higher = compound decreases kinase abundance
SYK = SYK (UniProt P43405); test: as above
TEC = TEC (UniProt P42680); test: as above
TYK2 = TYK2 (UniProt P29597); test: as above
ULK3 = ULK3 (UniProt Q6PHR2); test: as above
YES1 = YES1 (UniProt P07947); test: as above
ZAK = ZAK (UniProt Q9NYL2); test: as above
ZAP70 = ZAP70 (UniProt P43403); test: as above
ABL1 = ABL1 (UniProt P00519); test: number of time points (of 5) at which kinase-Nluc abundance scored as decreased, DMSO-normalised (count); higher = more persistent destabilization
AKT1 = AKT1 (UniProt P31749); test: as above

Row | SMILES | kinase-Nluc reporter destabilization hit call (STK38) | kinase-Nluc reporter destabilization hit call (SYK) | kinase-Nluc reporter destabilization hit call (TEC) | kinase-Nluc reporter destabilization hit call (TYK2) | kinase-Nluc reporter destabilization hit call (ULK3) | kinase-Nluc reporter destabilization hit call (YES1) | kinase-Nluc reporter destabilization hit call (ZAK) | kinase-Nluc reporter destabilization hit call (ZAP70) | number of time points (ABL1) | number of time points (AKT1)
1 | Cn1cc(C2=C(c3ccc(Cl)cc3Cl)C(=O)NC2=O)c2ccccc21 (10 µM) | inactive: 0 | inactive: 0 | inactive: 0 | inactive: 0 | inactive: 0 | inactive: 0 | inactive: 0 | inactive: 0 | 0 | 0
2 | CCOC(=O)c1c(N2CCc3ccc(OC)cc3C2)oc(C=C2C=Nc3ncccc32)c1O (10 µM) | inactive: 0 | inactive: 0 | inactive: 0 | active: 1 | inactive: 0 | inactive: 0 | inactive: 0 | inactive: 0 | 1 | 0
3 | C=CC(=O)Nc1cccc(Oc2nc(Nc3ccc(N4CCN(C)CC4)cc3OC)ncc2Cl)c1 (10 µM) | inactive: 0 | inactive: 0 | inactive: 0 | inactive: 0 | inactive: 0 | inactive: 0 | inactive: 0 | inactive: 0 | 0 | 0
4 | Nc1[nH]nc2nnc(-c3c(-c4ccccc4)nn4ccccc34)cc12 (10 µM) | inactive: 0 | inactive: 0 | inactive: 0 | inactive: 0 | inactive: 0 | inactive: 0 | inactive: 0 | inactive: 0 | 0 | 0
5 | Cc1cc2c(F)c(Oc3ncnn4cc(OC[C@@H](C)OC(=O)[C@H](C)N)c(C)c34)ccc2[nH]1 [Brivanib (alaninate)] (10 µM) | inactive: 0 | inactive: 0 | inactive: 0 | inactive: 0 | inactive: 0 | inactive: 0 | inactive: 0 | inactive: 0 | 0 | 0
6 | CS(=O)(=O)c1cccc(CNc2nc(Nc3ccc4c(c3)CCC(=O)N4)ncc2C(F)(F)F)c1 (10 µM) | inactive: 0 | inactive: 0 | inactive: 0 | inactive: 0 | inactive: 0 | inactive: 0 | inactive: 0 | inactive: 0 | 0 | 0
7 | CNCCOc1ccccc1C1(Nc2nccn(-c3cc(C(=O)NC4CC4)cc(F)c3C)c2=O)CC1 (10 µM) | inactive: 0 | inactive: 0 | inactive: 0 | inactive: 0 | inactive: 0 | inactive: 0 | inactive: 0 | inactive: 0 | 0 | 0
8 | Cc1ccc(C2CC(=O)NC(SCC(=O)Nc3nccs3)=C2C#N)cc1 (stereo not given) [Necrostatin-34] (10 µM) | inactive: 0 | inactive: 0 | inactive: 0 | inactive: 0 | inactive: 0 | inactive: 0 | inactive: 0 | inactive: 0 | 0 | 0
9 | COC(=O)N1CCN(C2CCC(Nc3nc(Nc4cnn(C)c4)nc4ccc(CC#N)nc34)CC2)CC1 (stereo not given) (10 µM) | inactive: 0 | inactive: 0 | inactive: 0 | inactive: 0 | inactive: 0 | inactive: 0 | inactive: 0 | inactive: 0 | 0 | 0
10 | Cc1ccc2c(NS(=O)(=O)c3ccccc3Cl)cccc2c1Oc1ncccc1-c1ccnc(N[C@H]2CCCNC2)n1 (2.5 µM) | inactive: 0 | inactive: 0 | inactive: 0 | inactive: 0 | inactive: 0 | inactive: 0 | inactive: 0 | inactive: 0 | 0 | 0
11 | O=C(O)c1c[nH]c2cc(Cl)c(-c3ccc(C4(O)CCC4)cc3)cc12 (10 µM) | inactive: 0 | inactive: 0 | inactive: 0 | inactive: 0 | inactive: 0 | inactive: 0 | inactive: 0 | inactive: 0 | 0 | 0
12 | COc1ccc(-c2cc(=O)c3c(O)cc(O)cc3o2)cc1-c1c(O)cc(O)c2c(=O)cc(-c3ccc(O)cc3)oc12 [Bilobetin] (2.5 µM) | inactive: 0 | inactive: 0 | inactive: 0 | inactive: 0 | inactive: 0 | inactive: 0 | inactive: 0 | inactive: 0 | 0 | 0
13 | Nc1ccc(-c2cccc(C(=O)Nc3cnc4nc(N5CCOCC5)oc4c3)n2)cn1 (10 µM) | inactive: 0 | inactive: 0 | inactive: 0 | inactive: 0 | inactive: 0 | inactive: 0 | inactive: 0 | inactive: 0 | 0 | 0
14 | O=C1NC(=O)C(Cc2c[nH]c3c(Cl)cccc23)N1 (stereo not given) [Necroptosis-IN-1] (10 µM) | inactive: 0 | inactive: 0 | inactive: 0 | inactive: 0 | inactive: 0 | inactive: 0 | inactive: 0 | inactive: 0 | 0 | 0
15 | CN(C[C@@H]1COCCO1)S(=O)(=O)Nc1ccc2ccc3ncc(-c4cnn(C)c4)cc3c(=O)c2c1 (2.5 µM) | inactive: 0 | inactive: 0 | inactive: 0 | inactive: 0 | inactive: 0 | inactive: 0 | inactive: 0 | inactive: 0 | 0 | 0

Three entries already listed, ordered by formula weight, low to high.
Row | SMILES | kinase-Nluc reporter destabilization hit call (STK38) | kinase-Nluc reporter destabilization hit call (SYK) | kinase-Nluc reporter destabilization hit call (TEC) | kinase-Nluc reporter destabilization hit call (TYK2) | kinase-Nluc reporter destabilization hit call (ULK3) | kinase-Nluc reporter destabilization hit call (YES1) | kinase-Nluc reporter destabilization hit call (ZAK) | kinase-Nluc reporter destabilization hit call (ZAP70) | number of time points (ABL1) | number of time points (AKT1)
4 | Nc1[nH]nc2nnc(-c3c(-c4ccccc4)nn4ccccc34)cc12 (10 µM) | inactive: 0 | inactive: 0 | inactive: 0 | inactive: 0 | inactive: 0 | inactive: 0 | inactive: 0 | inactive: 0 | 0 | 0
11 | O=C(O)c1c[nH]c2cc(Cl)c(-c3ccc(C4(O)CCC4)cc3)cc12 (10 µM) | inactive: 0 | inactive: 0 | inactive: 0 | inactive: 0 | inactive: 0 | inactive: 0 | inactive: 0 | inactive: 0 | 0 | 0
1 | Cn1cc(C2=C(c3ccc(Cl)cc3Cl)C(=O)NC2=O)c2ccccc21 (10 µM) | inactive: 0 | inactive: 0 | inactive: 0 | inactive: 0 | inactive: 0 | inactive: 0 | inactive: 0 | inactive: 0 | 0 | 0
